The values below come from PMC12578393.

Sequences of proteins named here, by UniProt entry; tags and fusion partners are left off.
UniProt O35129: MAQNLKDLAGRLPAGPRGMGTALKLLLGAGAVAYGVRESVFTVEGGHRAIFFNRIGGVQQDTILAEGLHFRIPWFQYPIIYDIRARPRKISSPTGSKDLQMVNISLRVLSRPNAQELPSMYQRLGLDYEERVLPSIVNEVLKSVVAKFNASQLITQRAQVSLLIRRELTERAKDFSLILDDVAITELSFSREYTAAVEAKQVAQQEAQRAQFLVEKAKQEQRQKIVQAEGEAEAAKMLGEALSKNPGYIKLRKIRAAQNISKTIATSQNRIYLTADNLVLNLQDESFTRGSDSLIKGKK

The target in this test is prohibitin-2 (mouse (endogenous in MLE-12 and MODE-K)) (UniProt O35129). As to the kind of experiment: co-IP; co-IP of IGFBP6 and PHB2 in MLE-12 and MODE-K cells; which protein was precipitated is not told in the main text.

Results are given in words; binding and its absence hold for the method and conditions named. Binding seen in cells or lysates may run through a third protein. Some results given as binding are weak or reduced against the parent protein; the word gives no strength.

B1: insulin-like growth factor binding protein 6 (protein, UniProt P47880 26-238)
chain: ALAGCPGCGAGMQTGCRGGCVEEEDAGSPADGCTEAGGCLRREGQPCGVYSPKCAPGLQCQPRENEEAPLRALLIGQGRCQRARGPSEETTKESKPQGGASRSRDTNHRDRQKNPRTSAAPIRPNPVQDSEMGPCRRHLDSVLQQLQTEVFRGGARGLYVPNCDLRGFYRKQQCRSSQGNRRGPCWCVDPMGQPLPVSPDGQGSTQCSARSSG
Turning to B1, the binding entry is “binds”.
